## Results of single-concentration screens

Chains of the proteins cited; added tags and fusions are not shown. Residues count along the entry.
UniProt Q8IDJ8, 1-583: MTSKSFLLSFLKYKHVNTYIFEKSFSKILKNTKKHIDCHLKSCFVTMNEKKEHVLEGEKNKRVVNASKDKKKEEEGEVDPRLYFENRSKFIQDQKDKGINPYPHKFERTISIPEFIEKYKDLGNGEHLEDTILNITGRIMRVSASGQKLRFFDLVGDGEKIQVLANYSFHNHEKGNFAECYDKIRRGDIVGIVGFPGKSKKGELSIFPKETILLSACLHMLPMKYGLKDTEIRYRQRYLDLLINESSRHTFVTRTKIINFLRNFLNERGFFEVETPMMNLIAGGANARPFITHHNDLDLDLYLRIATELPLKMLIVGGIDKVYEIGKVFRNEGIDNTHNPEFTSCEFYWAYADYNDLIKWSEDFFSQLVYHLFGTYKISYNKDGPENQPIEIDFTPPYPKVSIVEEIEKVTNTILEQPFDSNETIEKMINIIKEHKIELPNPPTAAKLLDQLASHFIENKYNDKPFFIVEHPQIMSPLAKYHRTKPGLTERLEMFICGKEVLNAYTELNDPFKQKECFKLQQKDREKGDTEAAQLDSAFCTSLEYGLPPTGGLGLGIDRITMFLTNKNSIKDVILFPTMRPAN

Source: ChEMBL document CHEMBL3988442, “University of Dundee, Small-Polar-MMV Screening Library” (2021).

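Enzyme assay of the cytosolic lysyl-tRNA synthetase in 384-well plates, read by luminescence. Target: Lysine-tRNA ligase, Plasmodium falciparum 3D7 (UniProt Q8IDJ8). Tested at 30 µM. Higher reads as stronger inhibition, judged from the few compounds that gave an IC50. Size under these conditions: about 69,000 compounds, about 49 of them at 50% or above in at least one test.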

Results are given as percent effect. The record does not define 0% and 100%; most values in the screen are far below 50% and negative numbers occur (in some assays of this library far below -100). This is an unselected part of the compounds tested.

| # | Compound | percent effect |
|---|---|---|
| 1 | `Cc1cc(C)n(CC2CCCN2C(=O)c2ccc3c(c2)COC3)n1` (centres unmarked) | 0.7178% |
| 2 | `CN1CCN(Cc2cn3c(n2)CN(C(=O)c2cccn2C)CC3)CC1` | -1.083% |
| 3 | `CC(Cn1cccn1)NC(=O)NCCc1ccsc1` (centres unmarked) | 0.6327% |
| 4 | `Cc1ccc(CN(C)C(=O)c2cccc(NC(N)=O)c2)o1` | 5.206% |
| 5 | `CCCN(CC)C(=O)c1nc2c(n1C)CCN(Cc1ccccc1)C2` | 3.171% |
| 6 | `Cc1ccc(CN2C(=O)CCC2C(=O)Nc2cnn(C)c2)o1` (centres unmarked) | 13.27% |
| 7 | `CCn1ccnc1CN1CCN(Cc2cnc(C)cn2)CC1C` (centres unmarked) | 10.72% |
| 8 | `Cc1ccc(N2Cc3nc(=O)n(C(C)C)n3C2=O)cc1` | 3.443% |
| 9 | `CC(C)CC(C)NC1CCN(c2cccc(-c3cscn3)c2)CC1` (centres unmarked) | 6.196% |
| 10 | `Cc1nc(C(=O)N2CCN(S(C)(=O)=O)[C@@H]3CS(=O)(=O)C[C@@H]32)cs1` | 6.188% |
| 11 | `CCCC(=O)N1CC[C@@H]2[C@H](CC1)N(Cc1cccc(C)n1)CCS2(=O)=O` | 5.376% |
| 12 | `O=C(O)[C@@H]1CN(Cc2c[nH]c(CC3CCCC3)n2)C[C@H]1c1ccncc1` | 6.228% |
| 13 | `CC(C(=O)N1CCCC1)S(=O)(=O)Cc1nc(C(C)(C)C)no1` (centres unmarked) | 7.999% |
| 14 | `Cc1cc(CSC2CCCN(c3cnn(C)c3)C2=O)no1` (centres unmarked) | 2.927% |
| 15 | `c1cc(CN2CCCC3(CCN(CC4CCCO4)CC3)C2)n[nH]1` (centres unmarked) | 0.1353% |
| 16 | `Cc1ccc(C(=O)N2CCC3(CC2)NC(=O)CC3c2ccccc2)cn1` (centres unmarked) | -2.563% |
| 17 | `CN(C)c1cc2c(nn1)CCN(C(=O)C1CCc3ccccc31)C2` (centres unmarked) | 7.644% |
| 18 | `CNc1cc(C)nc(C2COCCN2Cc2csc(C)n2)n1` (centres unmarked) | 1.236% |
| 19 | `CNc1cc2c(nn1)CCN(C(=O)c1ccc3c(c1)OCO3)C2` | 0.899% |
| 20 | `CS(=O)(=O)CCCSCc1cc(F)cc(Br)c1` | 2.972% |
| 21 | `COCCN(CCOC)Cc1c(C)nc2ccccc2c1O` | 2.325% |
| 22 | `CC(=O)N1CCc2c(nc(-c3ccncc3)nc2N(C)CC(O)CO)C1` (centres unmarked) | 5.078% |
| 23 | `Cn1ccnc1CNC(=O)CCc1cccc(F)c1` | 0.7118% |
| 24 | `CCc1cc(N(C)Cc2nonc2C)nc(N(C)C)n1` | 4.243% |
| 25 | `Cn1cc(-c2csc(N3CCCCCC3)n2)cn1` | 2.113% |
| 26 | `OC[C@@H]1CN2CCN(c3ccccn3)C[C@@H]2[C@H]1c1ccccc1` | 0.1458% |
| 27 | `CCCn1nc2c(cc1=O)CN(Cc1nc(-c3ccco3)no1)CC2` | -1.508% |
| 28 | `COc1cc(C(=O)NCCc2ccccc2OC)on1` | 7.684% |
| 29 | `CCC[C@H]1CN(Cc2ccc(N(C)C)nc2)C[C@@H]1NC(=O)CSC` | 2.419% |
| 30 | `COc1ccc(C[C@H]2CN(c3nnc(C)s3)CC[C@H]2OC)cc1` | 3.637% |
| 31 | `COCCN1C(=O)CC(c2cccnc2)C12CCN(C)CC2` (centres unmarked) | 3.47% |
| 32 | `O=C1CSC(c2ccc(O)cc2)c2sccc2N1` (centres unmarked) | 11.16% |
| 33 | `Cc1cc(C2CCCN2Cc2ccn(C)c(=O)c2)on1` (centres unmarked) | 0.7028% |
| 34 | `CN1CC(=O)N(c2cccc(F)c2)CC12CCN(S(=O)(=O)C1CC1)C2` (centres unmarked) | 5.55% |
| 35 | `CN(Cc1ccncc1)C(CO)c1cccc(Br)c1` (centres unmarked) | 1.989% |
| 36 | `CC(=O)NC(=O)C1(CCCc2ccncc2)CCN1` (centres unmarked) | 9.525% |
| 37 | `Cc1cc(NC(N)=O)ccc1OCC(F)(F)F` | 6.075% |
| 38 | `Cc1ccccc1C1(C(=O)N2CCCC(n3cncn3)C2)CC1` (centres unmarked) | -0.03377% |
| 39 | `CCCOC(=O)N1CCCC2(CCN(Cc3cccc(C#N)c3)C2)C1` (centres unmarked) | 5.486% |
| 40 | `Cc1nnc2n1CCN(c1nn3cc(C(C)(C)C)nc3s1)C2` | 2.335% |
| 41 | `CC(C)(C)C(=O)NCC(=O)NCCc1nc(C(F)(F)F)cs1` | 11.59% |
| 42 | `CS(=O)(=O)NC[C@]12COC[C@H]1CN(C(=O)c1ncccn1)C2` | -1.141% |
| 43 | `Cn1cccc1C(=O)N1CCC(c2nccn2Cc2ccncc2)CC1` | -4.057% |
| 44 | `Cc1ccc(C(=O)N2CCCC(n3cncn3)C2)o1` (centres unmarked) | -2.813% |
| 45 | `COCCN(Cc1cccnc1)S(=O)(=O)c1cccc(F)c1F` | 4.506% |
| 46 | `CC(C)Oc1ncccc1CNC(=O)c1cc(C2CC2)on1` | -0.9528% |
| 47 | `COCCN1CCCn2cnc(CNC3CCCC3)c2C1` | 5.266% |
| 48 | `Cc1nc(NS(=O)(=O)c2ccc(F)c(Br)c2)no1` | 3.857% |
| 49 | `COc1ccc2c(c1)OCC(Cc1cnccc1N)C2` (centres unmarked) | 0.07996% |
| 50 | `CC(C)(C)n1nnnc1CN(CCc1ccccc1)Cc1ccccc1` | 2.899% |
| 51 | `CCN(C)C(=O)CCN(C)Cc1cnc(C)s1` | 0.2657% |
| 52 | `CC1(C)CC(=O)N(CC(=O)Nc2ccon2)c2ccccc21` | -2.791% |
| 53 | `Cc1ncsc1CNC(=O)N1CCN(Cc2ccccc2)C[C@H]1C` | 6.472% |
| 54 | `Cc1ccccc1C1CCCN1Cc1nc2c(cnn2C)c(=O)[nH]1` (centres unmarked) | 1.265% |
| 55 | `Cc1cc(C(=O)N2C[C@@H](C(=O)O)[C@H](C(C)C)C2)cs1` | -2.01% |
| 56 | `Fc1ccc(CN2C[C@@H](OCc3ccccn3)[C@H]3COC[C@H]32)cc1` | 4.001% |
| 57 | `CCN1CC2(CCC1=O)CCN(CCOc1ccc(F)cc1)CC2` | 4.07% |
| 58 | `CCOC(=O)C1CCCN(c2nccc(-n3nc(C)cc3C)n2)C1` (centres unmarked) | 1.35% |
| 59 | `CC(=O)NCC(=O)N1C[C@@H](C)[C@@]2(CCN(c3ccsc3)C2=O)C1` | -0.9628% |
| 60 | `CC(C)(C)CC(=O)NCC(=O)NS(=O)(=O)c1cccnc1` | -5.103% |
| 61 | `Cc1cc(NC(C)c2nncn2C2CCCC2)n2nc(C)cc2n1` (centres unmarked) | 0.699% |

Some entries from above, unchanged:

| Compound | percent effect |
|---|---|
| `CN1CC(=O)N(c2cccc(F)c2)CC12CCN(S(=O)(=O)C1CC1)C2` (centres unmarked) | 5.55% |
| `CC(C)(C)C(=O)NCC(=O)NCCc1nc(C(F)(F)F)cs1` | 11.59% |
| `CCN(C)C(=O)CCN(C)Cc1cnc(C)s1` | 0.2657% |
| `O=C(O)[C@@H]1CN(Cc2c[nH]c(CC3CCCC3)n2)C[C@H]1c1ccncc1` | 6.228% |
| `CNc1cc2c(nn1)CCN(C(=O)c1ccc3c(c1)OCO3)C2` | 0.899% |
| `Cc1ccc(C(=O)N2CCC3(CC2)NC(=O)CC3c2ccccc2)cn1` (centres unmarked) | -2.563% |
| `Cc1ccc(C(=O)N2CCCC(n3cncn3)C2)o1` (centres unmarked) | -2.813% |